In PMC9184626:
Results are given in words; binding and its absence hold for the method and conditions named. Some binding calls cover weakened binding; strength is not graded here.

Sequences of proteins named here, by UniProt entry; tags and fusion partners are left off. A change or cut given only in a name is not applied to a line headed by its entry. Residues count along the entry.
UniProt P13597, residues 28-485: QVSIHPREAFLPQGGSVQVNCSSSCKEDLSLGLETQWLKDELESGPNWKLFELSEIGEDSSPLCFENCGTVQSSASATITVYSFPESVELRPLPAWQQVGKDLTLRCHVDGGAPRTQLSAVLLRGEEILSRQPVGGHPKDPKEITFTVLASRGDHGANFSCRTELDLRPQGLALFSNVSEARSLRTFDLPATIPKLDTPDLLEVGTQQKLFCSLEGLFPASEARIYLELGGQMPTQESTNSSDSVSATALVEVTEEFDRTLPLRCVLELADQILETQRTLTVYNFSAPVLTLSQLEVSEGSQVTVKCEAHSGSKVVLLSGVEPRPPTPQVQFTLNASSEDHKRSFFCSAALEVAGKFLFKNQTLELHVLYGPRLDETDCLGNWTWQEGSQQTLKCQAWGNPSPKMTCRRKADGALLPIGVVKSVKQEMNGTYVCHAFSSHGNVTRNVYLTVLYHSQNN
UniProt P24063: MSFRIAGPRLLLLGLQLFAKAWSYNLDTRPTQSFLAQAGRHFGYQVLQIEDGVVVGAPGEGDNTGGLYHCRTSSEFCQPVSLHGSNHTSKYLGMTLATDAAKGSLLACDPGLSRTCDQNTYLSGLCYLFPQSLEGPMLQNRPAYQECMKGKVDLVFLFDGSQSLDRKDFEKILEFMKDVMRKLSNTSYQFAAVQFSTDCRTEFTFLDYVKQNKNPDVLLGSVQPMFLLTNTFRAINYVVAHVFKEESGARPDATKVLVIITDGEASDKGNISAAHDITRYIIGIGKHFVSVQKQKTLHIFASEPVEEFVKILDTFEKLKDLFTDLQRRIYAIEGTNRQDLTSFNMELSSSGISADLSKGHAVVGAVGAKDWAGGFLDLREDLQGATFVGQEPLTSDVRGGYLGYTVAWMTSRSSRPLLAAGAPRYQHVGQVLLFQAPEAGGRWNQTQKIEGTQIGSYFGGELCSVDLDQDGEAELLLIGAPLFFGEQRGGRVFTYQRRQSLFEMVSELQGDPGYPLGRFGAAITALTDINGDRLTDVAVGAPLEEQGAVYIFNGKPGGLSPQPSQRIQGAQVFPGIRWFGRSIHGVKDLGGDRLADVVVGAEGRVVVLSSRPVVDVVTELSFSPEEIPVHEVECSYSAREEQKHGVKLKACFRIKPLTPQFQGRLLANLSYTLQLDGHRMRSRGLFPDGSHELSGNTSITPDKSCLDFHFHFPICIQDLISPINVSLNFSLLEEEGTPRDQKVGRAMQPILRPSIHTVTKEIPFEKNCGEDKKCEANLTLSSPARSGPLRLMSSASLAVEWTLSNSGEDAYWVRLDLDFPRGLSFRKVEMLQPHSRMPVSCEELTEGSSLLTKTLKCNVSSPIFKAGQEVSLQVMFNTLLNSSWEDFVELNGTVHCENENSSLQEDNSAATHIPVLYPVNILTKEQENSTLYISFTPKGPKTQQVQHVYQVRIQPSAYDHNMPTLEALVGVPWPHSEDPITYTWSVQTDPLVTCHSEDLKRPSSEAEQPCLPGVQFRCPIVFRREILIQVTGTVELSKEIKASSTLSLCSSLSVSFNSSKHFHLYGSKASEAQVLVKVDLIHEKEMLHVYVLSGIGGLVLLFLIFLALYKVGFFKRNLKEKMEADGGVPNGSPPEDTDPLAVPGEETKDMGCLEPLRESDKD

Assays:
[1] = target: extracellular domain of mouse ICAM-1 (a.a. 28-485, polyhistidine-tagged), biotinylated, monomeric (mouse) (UniProt P13597); test: cell adhesion to coated plates; as a2, but OT-1 Cas9 CTLs depleted of talin by CRISPR (TlnCR); only the target purified
[2] = target: extracellular domain of mouse ICAM-1 (a.a. 28-485, polyhistidine-tagged), biotinylated, monomeric (mouse) (UniProt P13597); test: cell adhesion to coated plates; 96-well plates coated with streptavidin, then increasing concentrations of biotinylated ICAM-1; CTV-labelled OT-1 CTLs in PBS with 0.5% BSA, 2 mM MgCl2, 1 mM CaCl2; 20 min at 37 °C; washed; bound cells read by fluorimetry; talin-depleted CTLs re-expressing the talin head; only the target purified
[3] = target: dimeric Fc-ICAM-1, biotinylated (UniProt P13597); test: DNA hairpin molecular tension probes (MTP), fluorescence imaging; biotinylated ICAM-1 (5 µg/mL) held by streptavidin on Cy3B/BHQ-2 DNA hairpin probes (unwinding at 4.7 pN) on glass, beside pMHC probes; OT-1 CTLs added in complete RPMI with IL-2; imaged for 30 min; CTLs with control or talin gRNA ± talin head in Figs. 6 and 8; only the target purified
[4] = target: extracellular domain of mouse ICAM-1 (a.a. 28-485, polyhistidine-tagged), biotinylated, monomeric (mouse) (UniProt P13597); test: as above

binding [1]: binds weakly
binding [2]: binds
binding [3]: binds
binding [4]: binds
Substance: LFA-1 (lymphocyte function-associated antigen 1), integrin αLβ2 (from UniProt P24063 24-1162; P11835 24-771) (receptor)
